The values below come from publication PMC8881269.

The chains behind the UniProt entries cited, without tags or fusion partners.
UniProt Q96RU2: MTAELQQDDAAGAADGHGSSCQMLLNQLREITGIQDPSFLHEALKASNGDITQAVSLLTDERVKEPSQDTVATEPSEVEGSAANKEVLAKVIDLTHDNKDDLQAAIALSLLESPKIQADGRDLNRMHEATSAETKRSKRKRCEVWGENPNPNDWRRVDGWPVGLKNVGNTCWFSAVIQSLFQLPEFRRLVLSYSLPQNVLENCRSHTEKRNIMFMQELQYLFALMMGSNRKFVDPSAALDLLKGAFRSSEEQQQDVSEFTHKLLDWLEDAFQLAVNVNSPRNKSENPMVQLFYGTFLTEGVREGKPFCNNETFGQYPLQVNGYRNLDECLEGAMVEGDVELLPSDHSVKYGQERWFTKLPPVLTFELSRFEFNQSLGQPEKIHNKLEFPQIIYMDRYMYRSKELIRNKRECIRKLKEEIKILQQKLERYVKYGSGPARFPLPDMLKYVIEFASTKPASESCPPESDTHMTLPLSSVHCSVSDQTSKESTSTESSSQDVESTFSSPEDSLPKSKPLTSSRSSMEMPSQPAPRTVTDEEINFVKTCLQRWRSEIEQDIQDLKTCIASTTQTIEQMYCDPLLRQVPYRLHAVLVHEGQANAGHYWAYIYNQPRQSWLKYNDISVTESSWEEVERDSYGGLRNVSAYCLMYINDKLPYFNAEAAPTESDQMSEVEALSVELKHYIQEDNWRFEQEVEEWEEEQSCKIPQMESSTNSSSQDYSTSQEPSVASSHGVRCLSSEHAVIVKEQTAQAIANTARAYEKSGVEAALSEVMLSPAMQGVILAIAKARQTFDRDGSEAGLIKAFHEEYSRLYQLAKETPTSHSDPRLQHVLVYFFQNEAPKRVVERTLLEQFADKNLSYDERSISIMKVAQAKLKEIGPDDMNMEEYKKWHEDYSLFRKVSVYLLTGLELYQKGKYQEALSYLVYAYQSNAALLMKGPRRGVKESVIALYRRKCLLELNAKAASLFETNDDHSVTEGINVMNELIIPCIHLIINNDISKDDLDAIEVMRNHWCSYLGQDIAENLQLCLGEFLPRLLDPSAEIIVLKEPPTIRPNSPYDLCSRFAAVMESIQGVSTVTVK
UniProt Q14980: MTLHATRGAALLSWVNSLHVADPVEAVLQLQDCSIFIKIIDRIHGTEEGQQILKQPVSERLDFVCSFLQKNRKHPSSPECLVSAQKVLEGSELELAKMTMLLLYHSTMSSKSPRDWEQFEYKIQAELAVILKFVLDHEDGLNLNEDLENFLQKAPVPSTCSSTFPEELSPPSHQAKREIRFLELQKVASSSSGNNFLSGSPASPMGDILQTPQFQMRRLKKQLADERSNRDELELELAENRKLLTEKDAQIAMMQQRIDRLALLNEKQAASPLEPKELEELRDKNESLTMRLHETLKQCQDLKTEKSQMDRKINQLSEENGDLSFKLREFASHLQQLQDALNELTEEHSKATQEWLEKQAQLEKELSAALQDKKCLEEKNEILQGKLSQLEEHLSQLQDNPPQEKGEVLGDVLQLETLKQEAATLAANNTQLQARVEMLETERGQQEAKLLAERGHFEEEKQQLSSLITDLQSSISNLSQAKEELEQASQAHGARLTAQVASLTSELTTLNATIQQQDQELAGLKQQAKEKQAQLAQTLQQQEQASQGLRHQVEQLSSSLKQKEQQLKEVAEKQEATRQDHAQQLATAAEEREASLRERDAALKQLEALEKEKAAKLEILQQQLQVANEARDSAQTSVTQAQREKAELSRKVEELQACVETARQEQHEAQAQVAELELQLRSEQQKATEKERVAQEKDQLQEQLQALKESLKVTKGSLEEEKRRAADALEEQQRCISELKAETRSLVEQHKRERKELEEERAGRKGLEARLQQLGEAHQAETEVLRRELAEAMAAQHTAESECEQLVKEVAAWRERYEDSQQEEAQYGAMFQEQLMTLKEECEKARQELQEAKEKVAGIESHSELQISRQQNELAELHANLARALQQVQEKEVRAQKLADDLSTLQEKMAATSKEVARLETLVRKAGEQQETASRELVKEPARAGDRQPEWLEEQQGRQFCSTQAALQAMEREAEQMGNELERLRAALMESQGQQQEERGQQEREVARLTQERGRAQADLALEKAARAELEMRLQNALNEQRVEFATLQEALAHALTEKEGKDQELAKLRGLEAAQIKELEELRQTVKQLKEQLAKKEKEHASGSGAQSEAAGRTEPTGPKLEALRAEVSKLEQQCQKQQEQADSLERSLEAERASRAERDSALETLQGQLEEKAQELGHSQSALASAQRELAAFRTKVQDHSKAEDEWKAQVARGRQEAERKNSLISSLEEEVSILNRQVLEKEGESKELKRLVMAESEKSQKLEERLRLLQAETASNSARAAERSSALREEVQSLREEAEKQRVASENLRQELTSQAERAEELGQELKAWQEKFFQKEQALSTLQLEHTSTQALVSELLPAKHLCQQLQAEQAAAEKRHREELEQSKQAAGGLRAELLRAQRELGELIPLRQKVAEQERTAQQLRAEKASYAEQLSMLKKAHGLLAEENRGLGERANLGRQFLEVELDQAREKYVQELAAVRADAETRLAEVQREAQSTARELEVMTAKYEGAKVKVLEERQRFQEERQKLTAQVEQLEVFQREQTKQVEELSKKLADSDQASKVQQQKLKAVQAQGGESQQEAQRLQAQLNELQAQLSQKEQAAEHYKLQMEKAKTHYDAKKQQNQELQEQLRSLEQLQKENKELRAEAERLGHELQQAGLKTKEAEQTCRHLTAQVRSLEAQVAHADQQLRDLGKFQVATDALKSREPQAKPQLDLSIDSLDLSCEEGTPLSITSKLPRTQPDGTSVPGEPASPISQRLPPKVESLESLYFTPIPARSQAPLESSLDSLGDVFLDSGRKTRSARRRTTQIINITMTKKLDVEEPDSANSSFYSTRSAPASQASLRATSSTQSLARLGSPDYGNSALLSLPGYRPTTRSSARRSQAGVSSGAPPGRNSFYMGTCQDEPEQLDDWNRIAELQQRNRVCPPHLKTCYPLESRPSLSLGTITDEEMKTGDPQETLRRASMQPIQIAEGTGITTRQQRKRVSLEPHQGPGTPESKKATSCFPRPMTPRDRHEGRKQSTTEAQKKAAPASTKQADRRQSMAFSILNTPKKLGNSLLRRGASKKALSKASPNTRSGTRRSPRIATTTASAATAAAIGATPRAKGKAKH
UniProt Q14676: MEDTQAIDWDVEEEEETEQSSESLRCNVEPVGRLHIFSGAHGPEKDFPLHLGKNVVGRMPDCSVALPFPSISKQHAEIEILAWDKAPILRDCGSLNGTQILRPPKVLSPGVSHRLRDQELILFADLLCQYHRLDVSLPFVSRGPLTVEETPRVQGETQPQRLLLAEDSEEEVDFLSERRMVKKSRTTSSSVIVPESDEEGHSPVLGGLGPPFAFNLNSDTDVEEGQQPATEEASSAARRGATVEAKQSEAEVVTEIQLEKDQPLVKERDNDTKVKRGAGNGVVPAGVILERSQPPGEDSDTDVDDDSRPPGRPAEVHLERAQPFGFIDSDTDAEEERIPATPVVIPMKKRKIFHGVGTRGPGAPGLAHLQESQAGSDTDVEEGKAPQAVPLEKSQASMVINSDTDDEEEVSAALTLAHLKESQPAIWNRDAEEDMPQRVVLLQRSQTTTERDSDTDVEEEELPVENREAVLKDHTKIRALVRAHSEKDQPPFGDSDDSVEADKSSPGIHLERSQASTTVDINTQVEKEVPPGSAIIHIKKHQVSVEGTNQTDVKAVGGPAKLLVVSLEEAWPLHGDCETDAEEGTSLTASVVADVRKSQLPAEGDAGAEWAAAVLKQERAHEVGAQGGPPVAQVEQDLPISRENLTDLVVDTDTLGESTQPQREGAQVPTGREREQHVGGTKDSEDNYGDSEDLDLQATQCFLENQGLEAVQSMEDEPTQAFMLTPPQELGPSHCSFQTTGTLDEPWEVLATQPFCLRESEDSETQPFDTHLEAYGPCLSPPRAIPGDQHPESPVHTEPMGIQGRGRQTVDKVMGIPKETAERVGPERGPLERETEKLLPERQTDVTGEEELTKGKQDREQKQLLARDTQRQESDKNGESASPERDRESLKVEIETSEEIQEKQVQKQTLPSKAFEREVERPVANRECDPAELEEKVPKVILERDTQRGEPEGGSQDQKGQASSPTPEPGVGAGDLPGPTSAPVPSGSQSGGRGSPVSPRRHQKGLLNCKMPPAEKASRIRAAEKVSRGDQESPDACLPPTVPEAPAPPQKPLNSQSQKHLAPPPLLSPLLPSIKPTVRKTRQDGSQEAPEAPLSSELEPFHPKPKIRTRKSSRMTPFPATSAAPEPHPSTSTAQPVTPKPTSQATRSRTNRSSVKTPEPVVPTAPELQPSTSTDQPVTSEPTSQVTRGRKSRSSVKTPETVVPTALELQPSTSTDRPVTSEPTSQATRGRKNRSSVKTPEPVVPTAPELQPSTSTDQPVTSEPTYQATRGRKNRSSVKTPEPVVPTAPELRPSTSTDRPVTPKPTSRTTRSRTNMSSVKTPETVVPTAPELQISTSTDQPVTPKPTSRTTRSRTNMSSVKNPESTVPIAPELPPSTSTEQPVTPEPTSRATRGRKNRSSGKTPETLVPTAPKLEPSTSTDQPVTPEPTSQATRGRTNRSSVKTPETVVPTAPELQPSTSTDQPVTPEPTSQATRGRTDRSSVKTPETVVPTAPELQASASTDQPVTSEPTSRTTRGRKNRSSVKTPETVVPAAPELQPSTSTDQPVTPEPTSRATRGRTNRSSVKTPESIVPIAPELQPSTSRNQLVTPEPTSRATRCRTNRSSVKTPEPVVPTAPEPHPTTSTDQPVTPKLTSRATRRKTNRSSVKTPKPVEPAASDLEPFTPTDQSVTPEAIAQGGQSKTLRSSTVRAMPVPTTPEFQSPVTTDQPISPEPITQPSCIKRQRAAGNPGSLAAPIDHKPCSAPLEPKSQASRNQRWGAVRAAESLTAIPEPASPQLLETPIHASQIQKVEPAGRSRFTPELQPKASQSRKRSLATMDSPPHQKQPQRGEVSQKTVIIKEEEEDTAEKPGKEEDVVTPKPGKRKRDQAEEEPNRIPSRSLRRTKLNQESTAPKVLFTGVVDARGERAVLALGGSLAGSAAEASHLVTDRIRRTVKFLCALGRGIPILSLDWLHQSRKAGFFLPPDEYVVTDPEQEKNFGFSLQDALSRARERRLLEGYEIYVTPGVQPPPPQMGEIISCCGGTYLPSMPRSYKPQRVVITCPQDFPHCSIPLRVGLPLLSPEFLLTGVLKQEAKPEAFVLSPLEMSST

For the assay, the target named is Ubiquitin Specific Peptidase 28 (human (endogenous in HCT116)) (UniProt Q96RU2). The assay is described as follows: affinity purification with mass spectrometry; anti-USP28 antibody on magnetic beads; lysates of HCT116 cells with and without DCD treatment (24 h after cytokinesis failure); lysis buffer 25 mM Tris-HCl pH 7.4, 150 mM NaCl, 1 mM EDTA, 1% NP-40, 5% glycerol; overnight at 4 °C; washes with 500 mM NaCl, 0.5% Triton X-100; volcano plot, t-test, FDR 0.05.

No constants are given. Whether binding was seen depends on the method and setting. Binding seen in cells or lysates may run through a third protein. Here binding means that the protein was enriched with, or labelled near, the bait; the list need not be complete.

For “nuclear mitotic apparatus protein 1 (from UniProt Q14980 1-2115)”, the binding entry is “binds”.

On to “mediator of DNA damage checkpoint 1 (from UniProt Q14676 1-2089)”, for which the binding result was “binds”.
